Data as given in PubChem BioAssay AID2685 (National Center for Advancing Translational Sciences (NCATS), 2010).
The list shows a part of the results. These are further read-outs of the screen, such as a control signal, another cell line or another target. No call is given for them. Most of these compounds were active or inconclusive in the main read-out, so they are no random draw. Potencies come from curve fits of mixed quality, noted in brackets.

Test: qHTS Assay for Lipid Storage Modulators in Drosophila S3 Cells;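 on cell number change: cells counted by Cell Tracker Red CMTPX staining in the red channel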
Settings: BODIPY lipid droplet fluorescence, 18-24 h; for cell number change: measured here: cell count max response, cells fed with added oleic acid
Method in brief: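 Drosophila S3 cells got compounds at several concentrations plus oleic acid (400 uM solution). Laser-scanning cytometry with 488 nm excitation read lipid droplets at 500-530 nm and cells at 575-640 nm. Percent activity was relative to 20 uM Triacsin C.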

[1] = measured here: lipid fluorescence (Fed channel) AC50, cells fed with added oleic acid
[2] = measured here: cell number channel AC50, cells fed with added oleic acid

Compound | cell number change | AC50 [1] | AC50 [2]
COc1ccccc1CN(CC(=O)NCc1ccc2c(c1)OCO2)C(=O)c1csnn1 | 23.8% | 29.1 µM [rising, single point] | –
O=C(CCCN1C(=O)c2ccccc2C1=O)Oc1ccc(F)cc1 | -75.6% | 4.11 µM [falling, full curve] | 3.66 µM [falling, full curve]
CC(C)NC(=O)Cn1cnc2c(cnn2-c2ccc(F)cc2)c1=O | 3.59% | 29.1 µM [rising, single point] | –
O=C1OCCC1Sc1ncnc2sccc12 (stereo not drawn) | -43.5% | 20.6 µM [falling, single point] | 29.1 µM [falling, single point]
CCCCc1nnc(NC(=O)CSCc2cc(=O)n3c(C)csc3n2)s1 | – | 16.4 µM [rising, single point] | –
O=S(=O)(c1ccccc1)N1CCN(CC(O)COc2ccc3c(c2)CCC3)CC1 (stereo not drawn) | -13.5% | – | 4.11 µM [falling, single point]
COc1cccc(C(=O)CC(C#N)c2ccc(F)cc2)c1 (stereo not drawn) | 23.4% | – | –
CCOc1c(Br)cc(/C=C2\C(=O)N(CCC#N)N=C2C)cc1OC | -31.3% | – | 13 µM [falling, single point]
N#Cc1ccsc1NC(=O)CN1CCCCCC1 | -3.43% | 5.8 µM [rising, full curve] | –
CC(C)Oc1cccc(C(=O)NC(=S)Nc2cccc(NC(=O)c3ccccc3Cl)c2)c1 | 10.8% | 1.16 µM [falling, single point] | 0.651 µM [falling, partial curve, poor fit]
CCCN1C(=O)/C(=C2/C=Cc3ccccc3N2CC)SC1=S | -32% | 0.231 µM [falling, full curve] | 29.1 µM [falling, single point]
CCNc1nc(SC(C(C)=O)C(C)=O)nc(N(C)C)n1 | 123% | 29.1 µM [rising, single point] | –
O=c1[nH]c(=S)[nH]c2c1C(c1ccc(Br)cc1)c1c([nH]c(=S)[nH]c1=O)O2 | 2.7% | 29.1 µM [falling, single point] | –
Cc1ccc(S(=O)(=O)CC(C)N2CCOCC2)c(S(=O)(=O)CC(C)N2CCOCC2)c1 (stereo not drawn) | 11.5% | – | –
CCN(c1ccccc1)S(=O)(=O)c1ccc(C(=O)NNC(=O)c2ccccc2F)cc1 | -4.41% | 29.1 µM [falling, single point] | –
CN1C(C(=O)N2CCc3ccccc3C2)=CC(c2ccc(F)cc2)=NS1(=O)=O | 13.4% | – | –
CCN(CC)S(=O)(=O)c1cc(NC(=O)COC(=O)CCc2nc3ccccc3s2)ccc1C | 70.1% | – | 18.4 µM [rising, single point]
CCOC(=O)c1c(C)nc2c(C)cccn12 | – | 3.66 µM [rising, single point] | –
CC(C)Cc1cc(C(=O)Nc2ccc(F)cc2F)no1 | – | 25.9 µM [falling, single point] | –
c1cc(-n2cnnn2)ccc1NC1=NCCC1 | -13.6% | 29.1 µM [falling, single point] | –

Compound | cell number change | AC50 [1] | AC50 [2]
CCOC(=O)C(=Cc1cc(=O)c(OC)co1)C(=O)OCC | -80.4% | 5.8 µM [falling, partial curve] | 18.4 µM [falling, partial curve]
CN(C(=S)NC(=O)CCCOc1ccc(Cl)cc1Cl)c1ccccc1 | – | 6.51 µM [falling, single point] | –
CC(C)(C)C(=O)Nc1cc(S(=O)(=O)Nc2ccc(Cl)cc2)ccc1Cl | -59.7% | 29.1 µM [falling, single point] | 29.1 µM [falling, single point]
COc1ccc(COCC(O)CN2CCCCC2)cc1OC (stereo not drawn) | 19.9% | – | 0.58 µM [rising, full curve, poor fit]
CC(C)C(=O)Nc1sc2c(c1-c1nc3ccccc3[nH]1)CCCC2 | – | – | 0.146 µM [rising, full curve, poor fit]
CCOC(=O)N1CCN(C(=O)c2ccc(NC(=O)CC)cc2)CC1 | – | 29.1 µM [rising, single point] | –
Cc1ccc(SCCCCN2CCNCC2)cc1 | 5.8% | – | –
CN(C)C(=O)CSc1ccc(S(=O)(=O)N2CCCC2)cn1 | 2.24% | 0.411 µM [rising, full curve] | –
Cc1ccc(Cl)c(NC(=O)CN2CCNC(=O)C2)c1Cl | -40.2% | 10.3 µM [falling, single point] | –
CC1CN(C(=O)CCC(=O)NCc2ccccc2Cl)c2ccccc2S1 (stereo not drawn) | 19.3% | – | –
O=C(Nc1ccc(Oc2ccc(Br)cc2)cc1)C1=CC=CN2CCS(=O)(=O)N=C12 | -10.8% | 2.59 µM [rising, partial curve, poor fit] | –
CCOc1ccc(Br)cc1S(=O)(=O)Nc1ccc(C(=O)OCC(=O)Nc2ccc(C#N)cc2)cc1 | 2.55% | 0.206 µM [falling, full curve, poor fit] | –
COc1ccc(C(=O)/C=C\c2ccc(NC(=O)c3cccs3)cc2)cc1 | -13.4% | 20.6 µM [falling, single point] | –
CN(C)C1(CNC(=O)C2CCC(=O)N(Cc3ccc(Cl)cc3)C2)CCCCC1 (stereo not drawn) | – | 6.51 µM [falling, single point] | –
Cc1ccc(N2CC(C)Cn3c2nc2c3c(=O)[nH]c(=O)n2C)cc1C (stereo not drawn) | -8.33% | 6.51 µM [falling, single point] | –
Cn1nc(N2CCN(S(=O)(=O)c3ccccc3)CC2)c(=O)n(C)c1=O | -12.2% | 0.291 µM [falling, full curve, poor fit] | –
Cc1ccc(-c2n[nH]c(=O)c3ccccc23)cc1S(=O)(=O)NCCO | 2.88% | 23.1 µM [rising, partial curve] | –
CSc1nc(Cl)c(Cc2ccc(OC(C)C)cc2)c(N2CCOCC2)n1 | -9.96% | – | –
Cc1nn(C)cc1S(=O)(=O)Nc1ccccc1Br | 11.6% | 29.1 µM [rising, partial curve, poor fit] | –
N#Cc1c(NC(=O)C2C3C=CC(C3)C2C(=O)O)sc2c1CCCCC2 (stereo not drawn) | -10.5% | 0.0231 µM [falling, full curve, poor fit] | –

Full records, looked up by structure. Order of values: cell number change | AC50 [1] | AC50 [2]
COc1ccc(C(=O)/C=C\c2ccc(NC(=O)c3cccs3)cc2)cc1 in the list: -13.4% | 20.6 µM [falling, single point] | –
N#Cc1c(NC(=O)C2C3C=CC(C3)C2C(=O)O)sc2c1CCCCC2 (stereo not drawn) in the list: -10.5% | 0.0231 µM [falling, full curve, poor fit] | –
